SMILES strings stand for the structures. Where two headings read alike, the source gives them in different places.

Consider four compounds from patent US12593865B2, “Member for flavor inhalation article, flavor inhalation article, phenol scavenger for flavor inhalation article, and method for producing flavor inhalation article” (Japan Tobacco Inc., priority 2019, dated 2026).

This data set in a line: Evaluation of migration amount into shreds (sealed screw tube bottle, gas chromatography).
The mark [1] stands for this setting: 0.5 mL substance with 560 mg tobacco shreds in sealed bottle, 3 weeks at 55° C. and 60% RH.

In the case of `CC(O)CCO` (stereo not shown) [1,3-butanediol], the “Migration Amount into Tobacco Shreds” value under setting [1] came out at 0.252 mmol/cig. On to `CCOC(=O)CCC(=O)OCC` [Diethyl succinate, diethyl succinate], for which the “Migration Amount into Tobacco Shreds” value under setting [1] stood at 0.105 mmol/cig. On to `OCCO` [Ethylene glycol, ethylene glycol], for which the “Migration Amount into Tobacco Shreds” value is 0.895 mmol/cig.

Consider `CC(O)CO` (stereo not shown) [Propylene glycol, propylene glycol], for which the “Migration Amount into Tobacco Shreds” value under setting [1] stood at 0.774 mmol/cig.
